Test results reported in the supplement of paper PMC10849652.
The list shows a part of the results.

Sequences of proteins named here, by UniProt entry; tags and fusion partners are left off. A change or cut given only in a name is not applied to a line headed by its entry.
UniProt Q16719: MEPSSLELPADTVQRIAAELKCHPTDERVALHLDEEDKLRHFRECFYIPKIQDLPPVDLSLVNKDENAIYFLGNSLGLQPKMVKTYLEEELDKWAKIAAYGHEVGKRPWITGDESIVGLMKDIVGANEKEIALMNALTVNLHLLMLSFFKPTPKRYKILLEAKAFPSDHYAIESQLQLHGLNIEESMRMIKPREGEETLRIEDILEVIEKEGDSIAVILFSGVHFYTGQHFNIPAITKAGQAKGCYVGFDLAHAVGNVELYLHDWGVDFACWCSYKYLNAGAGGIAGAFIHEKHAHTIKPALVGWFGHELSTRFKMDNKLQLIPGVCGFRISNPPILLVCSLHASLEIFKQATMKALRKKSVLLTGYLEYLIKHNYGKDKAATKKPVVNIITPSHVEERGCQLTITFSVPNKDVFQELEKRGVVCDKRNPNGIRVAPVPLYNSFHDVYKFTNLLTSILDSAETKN
UniProt O94898: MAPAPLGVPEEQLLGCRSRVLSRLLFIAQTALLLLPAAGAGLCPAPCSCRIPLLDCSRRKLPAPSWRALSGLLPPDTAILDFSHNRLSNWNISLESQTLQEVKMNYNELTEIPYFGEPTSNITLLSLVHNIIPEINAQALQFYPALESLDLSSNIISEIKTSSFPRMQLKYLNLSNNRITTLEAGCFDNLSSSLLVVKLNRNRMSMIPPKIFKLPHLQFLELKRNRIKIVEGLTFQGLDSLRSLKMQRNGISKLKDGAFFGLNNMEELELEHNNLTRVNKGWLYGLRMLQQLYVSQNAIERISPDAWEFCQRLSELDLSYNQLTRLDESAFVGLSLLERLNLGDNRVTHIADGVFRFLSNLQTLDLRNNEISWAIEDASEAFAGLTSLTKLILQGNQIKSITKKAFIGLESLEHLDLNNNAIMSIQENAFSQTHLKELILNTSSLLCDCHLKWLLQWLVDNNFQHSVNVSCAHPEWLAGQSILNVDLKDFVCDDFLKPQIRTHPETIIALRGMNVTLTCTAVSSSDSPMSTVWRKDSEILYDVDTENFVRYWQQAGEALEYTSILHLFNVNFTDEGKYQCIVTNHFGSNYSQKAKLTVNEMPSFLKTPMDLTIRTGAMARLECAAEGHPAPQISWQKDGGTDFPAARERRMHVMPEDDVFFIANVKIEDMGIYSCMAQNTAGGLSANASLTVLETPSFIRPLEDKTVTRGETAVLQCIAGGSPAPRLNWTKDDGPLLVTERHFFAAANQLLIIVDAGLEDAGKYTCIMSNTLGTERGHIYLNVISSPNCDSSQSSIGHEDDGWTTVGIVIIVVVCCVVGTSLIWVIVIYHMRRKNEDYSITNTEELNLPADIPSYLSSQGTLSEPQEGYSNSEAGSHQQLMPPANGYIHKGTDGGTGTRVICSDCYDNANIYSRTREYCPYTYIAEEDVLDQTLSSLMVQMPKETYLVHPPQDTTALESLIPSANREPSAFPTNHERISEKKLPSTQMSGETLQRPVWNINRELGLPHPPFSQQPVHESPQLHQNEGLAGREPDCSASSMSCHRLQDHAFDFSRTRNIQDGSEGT
UniProt Q14739: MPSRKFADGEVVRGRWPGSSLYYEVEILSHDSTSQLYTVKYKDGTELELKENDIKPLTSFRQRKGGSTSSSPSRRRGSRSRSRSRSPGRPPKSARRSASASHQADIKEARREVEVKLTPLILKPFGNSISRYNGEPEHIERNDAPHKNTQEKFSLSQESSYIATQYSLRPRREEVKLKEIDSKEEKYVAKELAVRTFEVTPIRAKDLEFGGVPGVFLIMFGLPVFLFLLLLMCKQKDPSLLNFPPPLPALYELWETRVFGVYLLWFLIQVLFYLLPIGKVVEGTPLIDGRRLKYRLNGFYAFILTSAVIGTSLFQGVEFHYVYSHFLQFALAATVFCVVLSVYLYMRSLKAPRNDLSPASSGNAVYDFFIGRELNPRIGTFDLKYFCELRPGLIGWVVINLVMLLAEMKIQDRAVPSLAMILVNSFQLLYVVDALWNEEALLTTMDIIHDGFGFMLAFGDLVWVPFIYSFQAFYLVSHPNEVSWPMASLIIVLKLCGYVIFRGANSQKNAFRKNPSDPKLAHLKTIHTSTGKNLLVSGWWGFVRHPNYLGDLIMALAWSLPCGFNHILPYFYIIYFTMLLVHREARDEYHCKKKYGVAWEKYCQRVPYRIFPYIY
UniProt Q96PV6, whole entry, looked up: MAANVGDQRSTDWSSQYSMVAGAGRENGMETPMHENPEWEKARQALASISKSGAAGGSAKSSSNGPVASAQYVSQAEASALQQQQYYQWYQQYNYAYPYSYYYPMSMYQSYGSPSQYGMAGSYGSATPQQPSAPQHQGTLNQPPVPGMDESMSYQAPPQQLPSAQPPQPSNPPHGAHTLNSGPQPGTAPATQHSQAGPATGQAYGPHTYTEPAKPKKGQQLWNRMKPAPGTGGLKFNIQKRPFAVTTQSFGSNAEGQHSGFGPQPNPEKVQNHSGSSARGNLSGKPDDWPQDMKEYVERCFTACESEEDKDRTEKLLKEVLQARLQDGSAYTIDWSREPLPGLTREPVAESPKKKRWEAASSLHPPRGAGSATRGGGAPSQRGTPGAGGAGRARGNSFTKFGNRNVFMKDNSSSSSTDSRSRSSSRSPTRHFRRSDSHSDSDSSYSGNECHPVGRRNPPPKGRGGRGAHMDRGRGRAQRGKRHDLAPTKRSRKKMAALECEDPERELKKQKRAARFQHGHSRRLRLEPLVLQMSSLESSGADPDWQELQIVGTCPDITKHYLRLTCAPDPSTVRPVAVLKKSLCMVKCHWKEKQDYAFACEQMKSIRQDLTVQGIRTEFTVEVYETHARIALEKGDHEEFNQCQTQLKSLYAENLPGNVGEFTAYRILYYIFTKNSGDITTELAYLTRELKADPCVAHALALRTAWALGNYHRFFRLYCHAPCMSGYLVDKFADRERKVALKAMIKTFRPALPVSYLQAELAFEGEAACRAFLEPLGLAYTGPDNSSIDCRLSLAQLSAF
UniProt Q13094: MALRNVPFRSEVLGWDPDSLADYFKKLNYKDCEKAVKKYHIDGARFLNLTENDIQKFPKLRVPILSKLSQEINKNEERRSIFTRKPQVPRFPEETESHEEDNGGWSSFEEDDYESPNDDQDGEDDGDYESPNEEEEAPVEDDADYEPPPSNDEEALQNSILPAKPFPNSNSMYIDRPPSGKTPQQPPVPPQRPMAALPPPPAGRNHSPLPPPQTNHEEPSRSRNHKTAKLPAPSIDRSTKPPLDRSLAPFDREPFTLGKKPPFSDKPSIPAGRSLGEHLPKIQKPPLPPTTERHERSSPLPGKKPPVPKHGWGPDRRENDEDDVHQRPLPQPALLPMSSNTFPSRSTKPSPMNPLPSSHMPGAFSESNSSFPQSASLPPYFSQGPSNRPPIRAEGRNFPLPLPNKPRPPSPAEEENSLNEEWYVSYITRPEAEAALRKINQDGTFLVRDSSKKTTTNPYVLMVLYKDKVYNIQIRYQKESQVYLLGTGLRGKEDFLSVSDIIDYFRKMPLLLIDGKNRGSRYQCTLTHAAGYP
UniProt O75427: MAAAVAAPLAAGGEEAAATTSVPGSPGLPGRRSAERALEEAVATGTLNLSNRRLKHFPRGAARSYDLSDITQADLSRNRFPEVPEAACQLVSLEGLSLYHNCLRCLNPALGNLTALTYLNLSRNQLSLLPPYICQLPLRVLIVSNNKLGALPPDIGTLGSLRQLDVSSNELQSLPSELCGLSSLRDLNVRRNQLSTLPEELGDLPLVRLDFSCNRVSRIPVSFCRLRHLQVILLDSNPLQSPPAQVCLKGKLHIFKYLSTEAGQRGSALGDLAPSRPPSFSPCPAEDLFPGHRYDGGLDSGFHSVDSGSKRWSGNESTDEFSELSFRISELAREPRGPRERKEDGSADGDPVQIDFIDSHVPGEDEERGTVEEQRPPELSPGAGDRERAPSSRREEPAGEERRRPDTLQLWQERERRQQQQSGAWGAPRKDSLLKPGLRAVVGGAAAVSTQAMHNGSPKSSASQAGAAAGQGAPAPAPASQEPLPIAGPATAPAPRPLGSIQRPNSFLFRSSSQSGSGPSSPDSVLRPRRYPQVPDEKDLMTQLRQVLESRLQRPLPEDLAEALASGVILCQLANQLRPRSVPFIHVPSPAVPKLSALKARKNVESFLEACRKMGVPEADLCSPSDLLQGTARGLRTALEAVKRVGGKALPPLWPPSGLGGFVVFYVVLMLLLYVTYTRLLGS
UniProt Q5TKA1: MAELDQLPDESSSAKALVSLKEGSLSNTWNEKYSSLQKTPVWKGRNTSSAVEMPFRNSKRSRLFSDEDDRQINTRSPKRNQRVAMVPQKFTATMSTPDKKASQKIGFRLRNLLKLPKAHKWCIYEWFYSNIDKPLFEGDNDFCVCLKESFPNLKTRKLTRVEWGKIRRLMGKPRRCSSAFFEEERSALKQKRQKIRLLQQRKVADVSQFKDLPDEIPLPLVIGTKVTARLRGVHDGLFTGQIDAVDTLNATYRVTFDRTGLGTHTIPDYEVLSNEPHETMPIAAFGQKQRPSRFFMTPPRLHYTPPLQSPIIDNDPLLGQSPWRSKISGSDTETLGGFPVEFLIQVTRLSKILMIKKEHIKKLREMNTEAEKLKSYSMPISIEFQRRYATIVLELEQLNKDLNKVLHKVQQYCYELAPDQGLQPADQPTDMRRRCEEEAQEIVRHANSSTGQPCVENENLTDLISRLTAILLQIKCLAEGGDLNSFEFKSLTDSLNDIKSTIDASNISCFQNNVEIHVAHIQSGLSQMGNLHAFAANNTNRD
UniProt Q16773: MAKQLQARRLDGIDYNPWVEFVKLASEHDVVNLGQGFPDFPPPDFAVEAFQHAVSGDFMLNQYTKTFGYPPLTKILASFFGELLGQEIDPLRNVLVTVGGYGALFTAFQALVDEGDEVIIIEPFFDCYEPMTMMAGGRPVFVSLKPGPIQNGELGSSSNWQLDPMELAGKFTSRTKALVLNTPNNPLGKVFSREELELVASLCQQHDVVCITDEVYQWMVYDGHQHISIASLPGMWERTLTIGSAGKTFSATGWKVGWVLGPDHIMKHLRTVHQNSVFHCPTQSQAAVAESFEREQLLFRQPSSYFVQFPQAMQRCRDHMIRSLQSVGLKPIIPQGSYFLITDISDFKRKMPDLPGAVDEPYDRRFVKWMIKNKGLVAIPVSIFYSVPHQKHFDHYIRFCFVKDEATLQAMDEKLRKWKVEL
UniProt Q6PJG9: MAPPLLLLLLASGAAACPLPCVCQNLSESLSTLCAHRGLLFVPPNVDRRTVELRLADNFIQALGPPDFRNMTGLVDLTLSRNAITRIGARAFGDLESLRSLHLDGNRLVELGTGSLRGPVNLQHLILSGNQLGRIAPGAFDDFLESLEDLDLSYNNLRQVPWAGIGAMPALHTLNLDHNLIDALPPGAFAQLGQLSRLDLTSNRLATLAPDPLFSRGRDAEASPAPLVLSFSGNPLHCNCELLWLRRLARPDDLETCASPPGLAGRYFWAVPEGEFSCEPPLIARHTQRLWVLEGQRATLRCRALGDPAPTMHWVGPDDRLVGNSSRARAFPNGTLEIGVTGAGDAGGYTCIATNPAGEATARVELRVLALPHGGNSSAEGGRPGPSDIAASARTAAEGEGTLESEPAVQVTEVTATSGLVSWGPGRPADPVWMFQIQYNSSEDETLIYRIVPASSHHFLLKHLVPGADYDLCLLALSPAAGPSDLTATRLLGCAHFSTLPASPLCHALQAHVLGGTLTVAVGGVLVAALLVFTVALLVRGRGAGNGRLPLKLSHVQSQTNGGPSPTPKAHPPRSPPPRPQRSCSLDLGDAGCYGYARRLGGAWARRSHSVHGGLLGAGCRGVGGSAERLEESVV
UniProt Q9NT99: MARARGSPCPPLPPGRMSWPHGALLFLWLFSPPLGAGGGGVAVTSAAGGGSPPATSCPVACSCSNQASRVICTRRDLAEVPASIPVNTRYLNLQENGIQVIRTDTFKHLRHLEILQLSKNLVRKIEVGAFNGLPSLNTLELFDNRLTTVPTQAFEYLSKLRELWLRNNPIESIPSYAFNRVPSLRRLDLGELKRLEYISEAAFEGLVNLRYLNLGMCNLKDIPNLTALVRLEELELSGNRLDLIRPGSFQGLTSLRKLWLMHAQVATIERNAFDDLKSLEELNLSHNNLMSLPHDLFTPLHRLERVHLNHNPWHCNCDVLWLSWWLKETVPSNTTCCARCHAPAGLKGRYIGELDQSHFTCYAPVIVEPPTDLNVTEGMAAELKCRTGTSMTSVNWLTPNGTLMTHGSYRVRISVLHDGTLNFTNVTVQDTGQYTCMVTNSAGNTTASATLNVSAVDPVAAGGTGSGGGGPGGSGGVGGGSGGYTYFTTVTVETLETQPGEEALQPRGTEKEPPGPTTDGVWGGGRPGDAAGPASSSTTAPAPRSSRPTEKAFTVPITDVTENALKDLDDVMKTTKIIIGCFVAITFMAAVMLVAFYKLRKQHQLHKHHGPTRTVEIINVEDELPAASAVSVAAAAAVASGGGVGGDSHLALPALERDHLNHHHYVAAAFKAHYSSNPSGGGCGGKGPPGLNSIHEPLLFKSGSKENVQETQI
UniProt Q9BT23: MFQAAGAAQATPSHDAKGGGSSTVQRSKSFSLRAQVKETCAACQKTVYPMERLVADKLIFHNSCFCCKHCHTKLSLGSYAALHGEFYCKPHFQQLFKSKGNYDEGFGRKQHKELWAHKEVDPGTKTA

How the values were obtained:
Assay in all cases: log2 fold change, soluble protein after heating vs DMSO (PISA); higher = thermal stabilisation; K562 cells, 10 uM, 30 min; active = over 0.2 and 3.5 SD of the protein, either way, in both replicates (recomputed)
[1] = compound: CC1=C(C=C(C=C1)NC(=O)C2=CC(=CC=C2)C(C)(C)C#N)NC3=CC4=C(C=C3)N=CN(C4=O)C
Method in brief: (§1)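 Quantification of soluble protein used TMTpro 16plex LC-MS/MS, with channel sums equalised. Samples were the supernatant after 21,000xg for 90 min of pooled aliquots from K562 cells (2×10^6 cells/mL) treated with 10 μM compound for 30 min, heated for 3 min over 48°C-58°C, and extracted in PBS with 0.5% NP-40 at 4°C. Values, from duplicates, describe thermal stability against control samples on a log2 fold-change scale.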

[2] = compound: CC1=C(C=C(C=C1)NC(=O)C2=CC(=CC=C2)N(C)C)NC(=O)C3=CC=C(C=C3)O
Method in brief: as §1

[3] = compound: CC1=CC=C(C=C1)SC2=C3C=C(SC3=CN=C2)C(=O)N
Method in brief: as §1

[4] = compound: CC1=NC(=CC=C1)C2=C(N=C(N2)C(C)(C)C)C3=CC4=NC=CN=C4C=C3
Method in brief: as §1

Nexturastat A = compound: CCCCN(Cc1ccc(C(=O)NO)cc1)C(=O)Nc1ccccc1 [Nexturastat A]
Method in brief: as §1

vemurafenib = compound: CCCS(=O)(=O)Nc1ccc(F)c(C(=O)c2c[nH]c3ncc(-c4ccc(Cl)cc4)cc23)c1F [vemurafenib]
Method in brief: as §1

[5] = compound: CCCS(=O)(=O)Nc1ccc(F)c(C(=O)c2c[nH]c3ncc(Cl)cc23)c1F
Method in brief: as §1

[6] = compound: CCCc1cc(C)[nH]c(=O)c1CNC(=O)c1cc(-c2ccnc(N3CCN(C)CC3)c2)cc2c1cnn2C(C)C
Method in brief: as §1

givinostat = compound: CCN(CC)Cc1ccc2cc(COC(=O)Nc3ccc(C(=O)NO)cc3)ccc2c1 [givinostat]
Method in brief: as §1

barasertib = compound: CCN(CCCOc1ccc2c(Nc3cc(CC(=O)Nc4cccc(F)c4)[nH]n3)ncnc2c1)CCOP(=O)(O)O [barasertib]
Method in brief: as §1

Measured: log2 fold change

LARP7 isoform 3 (UniProt Q4G0J3)
inactive: [1] -0.011 | [2] 0.054 | [3] -0.03 | [4] -0.053 | Nexturastat A 0.016 | vemurafenib 0.027 | [5] 0.045 | [6] 0.004 | givinostat -0.03 | barasertib 0

LLGL1 (UniProt Q15334)
inactive: [1] -0.001 | [3] -0.029 | [4] 0.001 | Nexturastat A 0.044 | [5] 0.043 | givinostat -0.031

LRRC41 (UniProt Q15345)
inactive: [1] 0.12 | [3] 0.093 | [5] 0.06 | givinostat 0.16 | barasertib -0.244

LANCL2 (UniProt Q9NS86)
inactive: [1] -0.018 | [2] 0.011 | [3] -0.001 | [4] 0.002 | Nexturastat A -0.002 | vemurafenib -0.009 | [5] -0.062 | [6] -0.033 | givinostat -0.065 | barasertib -0.004

KYNU (UniProt Q16719)
inactive: [1] -0.028 | [2] 0.028 | [3] 0.003 | [4] -0.062 | Nexturastat A -0.002 | vemurafenib -0.038 | [5] -0.014 | [6] -0.049 | givinostat 0.018 | barasertib 0.007

LMF2 (UniProt Q9BU23)
inactive: [1] 0.009 | [2] -0.07 | [3] 0.025 | [4] -0.078 | Nexturastat A -0.022 | vemurafenib 0.067 | [5] -0.022 | [6] 0.016 | givinostat 0.033 | barasertib -0.002

LRIG2 (UniProt O94898)
inactive: [1] -0.026 | [2] -0.022 | [3] -0.042 | [4] -0.03 | Nexturastat A -0.05 | vemurafenib 0.137 | [5] -0.054 | [6] -0.037 | givinostat 0.013 | barasertib 0.04

LBR (UniProt Q14739)
inactive: [1] 0.045 | [2] -0.035 | [3] -0.002 | [4] 0.045 | Nexturastat A -0.108 | vemurafenib 0.063 | [5] 0.05 | [6] -0.009 | givinostat 0.125 | barasertib 0.024

LRFN1 (UniProt Q9P244)
inactive: [1] 0.052 | [2] 0.076 | [3] 0.02 | [4] -0.101 | Nexturastat A 0.241 | vemurafenib -0.031 | [5] 0.054 | givinostat -0.025 | barasertib 0.037

LENG8 (UniProt Q96PV6)
inactive: [1] 0.112 | [2] -0.201 | [4] 0.009 | Nexturastat A -0.139 | vemurafenib 0.146 | [6] 0.066 | givinostat 0.09 | barasertib 0.173

L1RE1 (UniProt Q9UN81)
inactive: [1] 0.019 | [2] 0.123 | [3] 0.018 | [4] -0.11 | Nexturastat A 0.389 | vemurafenib -0.01 | [5] -0.057 | [6] 0 | givinostat -0.029 | barasertib -0.11

LCP2 (UniProt Q13094)
inactive: [1] 0 | [2] -0.001 | [4] 0.045 | Nexturastat A 0.062 | vemurafenib 0.034 | givinostat -0.013 | barasertib 0.066

LARGE2 (UniProt Q8N3Y3)
inactive: [1] -0.018 | [4] 0.022

LRP10 (UniProt Q7Z4F1)
inactive: [1] -0.16 | [2] -0.38 | [3] 0.036 | [4] -0.054 | Nexturastat A 0.123 | [5] 0 | [6] -0.253 | barasertib -0.058

LEG1 (UniProt Q6P5S2)
inactive: [1] -0.234 | [3] 0.167 | vemurafenib 0.304 | [5] -0.269 | [6] -0.46 | barasertib 0.075

LINS1 (UniProt Q8NG48)
inactive: [1] 0.218 | [2] -0.099 | [4] 0.055 | Nexturastat A -0.084 | [6] -0.045 | givinostat -0.086 | barasertib 0.222

LRCH4 (UniProt O75427)
inactive: [1] -0.079 | [2] -0.098 | [4] -0.022 | Nexturastat A 0.123

LETMD1 isoform 7 (UniProt Q6P1Q0)
inactive: [1] 0.063 | [2] -0.017 | [3] 0.045 | [4] 0.014 | Nexturastat A 0.149 | [5] 0.103 | [6] 0.022 | givinostat -0.008 | barasertib -0.006

LIN9 isoform 2 (UniProt Q5TKA1)
inactive: [1] -0.186 | [2] -0.019 | [4] 0.153 | Nexturastat A 0.036 | vemurafenib 0.118 | barasertib 0.242

KYAT1 (UniProt Q16773)
inactive: [1] 0.021 | [2] -0.014 | [3] 0.041 | [4] 0.042 | Nexturastat A -0.033 | vemurafenib -0.006 | [5] 0.045 | [6] -0.024 | givinostat -0.006 | barasertib -0.032

LENG1 (UniProt Q96BZ8)
inactive: [1] -0.053 | [2] -0.016 | [3] -0.012 | [4] -0.107 | Nexturastat A -0.027 | vemurafenib -0.133 | [5] -0.029 | [6] -0.058 | givinostat 0.012 | barasertib -0.01

LRFN4 (UniProt Q6PJG9)
inactive: [1] -0.008 | [2] -0.016 | [3] 0.023 | [4] 0.003 | Nexturastat A -0.09 | [5] 0.002 | [6] -0.081 | givinostat 0.061 | barasertib 0.087

LAMP1 (UniProt P11279)
inactive: [1] -0.013 | [2] -0.034 | [3] -0.005 | [4] -0.005 | Nexturastat A -0.076 | vemurafenib 0.009 | [5] 0.007 | [6] -0.04 | givinostat 0.023 | barasertib -0.011

LIMK1 (UniProt P53667)
inactive: [1] 0.041 | [3] -0.108 | [4] -0.115 | Nexturastat A 0.166 | [5] 0.359 | barasertib 0.025

LRRC4B (UniProt Q9NT99)
inactive: [1] 0 | [2] 0 | [3] -0.044 | [4] -0.047 | Nexturastat A -0.005 | vemurafenib -0.119 | [5] 0.075 | givinostat 0.201 | barasertib -0.028

LIN37 (UniProt Q96GY3)
inactive: [1] -0.036 | [3] 0.004 | [4] 0.01 | [5] -0.018 | givinostat 0.453

LMNB2 (UniProt Q03252)
inactive: [1] -0.022 | [2] 0.015 | [3] -0.025 | [4] 0.063 | Nexturastat A -0.04 | vemurafenib 0.019 | [5] 0.045 | [6] -0.014 | givinostat 0.047 | barasertib 0.039

LIMD2 (UniProt Q9BT23)
inactive: [1] -0.033 | [3] 0.022 | [5] -0.144 | givinostat 0.159

LRP6 (UniProt O75581)
inactive: [1] 0.07 | [3] 0 | [4] 0.077 | [5] -0.067 | givinostat -0.12 | barasertib 0.001

LARP1B, A0A3B3ISF0
inactive: [1] -0.133 | [2] 0.025 | [3] 0.038 | [5] -0.187

LAS1L (UniProt Q9Y4W2)
inactive: [1] -0.285 | [2] 0.035 | [3] 0.07 | [4] 0.208 | Nexturastat A 0.323 | vemurafenib -0.012 | [5] 0.128 | barasertib -0.078

Random excerpt: two records from the list.
LRRC4B (UniProt Q9NT99)
inactive: [1] 0 | [2] 0 | [3] -0.044 | [4] -0.047 | Nexturastat A -0.005 | vemurafenib -0.119 | [5] 0.075 | givinostat 0.201 | barasertib -0.028

KYNU (UniProt Q16719)
inactive: [1] -0.028 | [2] 0.028 | [3] 0.003 | [4] -0.062 | Nexturastat A -0.002 | vemurafenib -0.038 | [5] -0.014 | [6] -0.049 | givinostat 0.018 | barasertib 0.007

Carrying on:

LEPROT (UniProt O15243)
inactive: Nexturastat A -0.02 | [6] -0.12 | givinostat -0.467

LANCL3 (UniProt Q6ZV70)
inactive: [1] -0.175 | [4] 0.055 | Nexturastat A -0.203 | barasertib -0.027
